Some of the results follow. The main result of the screen is listed elsewhere. These columns were measured beside it and carry no call. Compounds called inactive in the main read-out are mostly missing here. Words in brackets tell the shape of the fitted curve; partial curves, single points and poor fits give uncertain potencies.
Assay: qHTS Assay for Lipid Storage Modulators in Drosophila S3 Cells;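 on cell number change: cells counted by Cell Tracker Red CMTPX staining in the red channel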
Conditions: BODIPY lipid droplet fluorescence, 18-24 h; for cell number change: measured here: cell count max response, cells fed with added oleic acid
Procedure, shortened: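 Laser-scanning cytometry quantifies lipid droplet accumulation (500–530 nm total intensity; droplet/cell object ratio) in oleic acid-fed (400 uM added) Drosophila S3 cells treated with a concentration series. 20 uM Triacsin C defined 100% inhibition.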

[1] = measured here: lipid fluorescence (Fed channel) AC50, cells fed with added oleic acid
[2] = measured here: cell number channel AC50, cells fed with added oleic acid

| Compound | cell number change [%] | AC50 [1] | AC50 [2] |
| --- | --- | --- | --- |
| O=C1c2sc3nc4c(c(=O)n3c2C(=O)N1c1ccccc1)CCC4 | -7.45 | 29100 nM [rising, single point] |  |
| CCOC(=O)C1(Cc2cccc(Cl)c2)CCCN(C(=O)c2c(CC)noc2C)C1 (configuration not stated) | -8.02 |  |  |
| CC(C)CCn1c(=O)[nH]c2ccccc21 | 54.9 | 14600 nM [rising, partial curve] | 13000 nM [rising, partial curve] |
| CC(/C=N/NC(=O)c1n[nH]c2c1CCC2)=C\c1ccccc1 | -53.7 | 23100 nM [falling, single point] | 29100 nM [falling, single point] |
| O=C(CN1CCN(S(=O)(=O)c2ccc(Br)cc2)CC1)N/N=C/c1ccc(Cl)c([N+](=O)[O-])c1 | 7.3 | 18400 nM [falling, partial curve, poor fit] |  |
| Cc1cc(C)n(/N=C/c2ccccc2O)c(=O)c1 | -7.01 |  | 580 nM [falling, single point] |
| COc1ccc(Cl)cc1S(=O)(=O)n1cnc2ccccc21 |  | 1030 nM [rising, full curve, poor fit] |  |
| COc1ccc(C(=O)C2CCCN(C(=O)c3ccc(F)cc3)C2)cc1OC (configuration not stated) | 14.7 | 517 nM [rising, partial curve, poor fit] |  |
| Cc1cc(CNC(=O)COc2ccc(C#N)cc2)c2ccccc2n1 | -24.3 | 29100 nM [falling, single point] |  |
| Cc1ccc(NS(=O)(=O)c2ccc(Br)s2)cc1S(=O)(=O)N1CCOCC1 | -40.2 | 4.61 nM [falling, full curve, poor fit] |  |
| COc1ccc(Cl)cc1C(=O)Nc1cccnc1Cl | 9.06 | 580 nM [rising, single point] |  |
| O=C(NCc1ccc(Cl)cc1)C1CCN(C(=O)c2ccco2)CC1 | -15.4 |  |  |
| CC1=CC(C)(C)N(C)C(=O)N1c1ccc(Cl)cc1 | 2.69 | 18400 nM [rising, single point] |  |
| c1ccc(-c2ccccc2OCCOCCN2CCc3ccccc3C2)cc1 | -27.9 |  |  |
| CC1=C(C)CC(C(=O)NCc2cccc(Cl)c2)C(C(=O)O)C1 (configuration not stated) | 7.41 |  |  |
| COCC(C)n1c(SCC(=O)Nc2nccs2)nc2ccccc2c1=O (configuration not stated) | -7.52 | 820 nM [falling, single point] |  |
| CCCCn1c(N)c(N(CC)C(=O)C2=NN(c3ccccc3)C(=O)CC2)c(=O)[nH]c1=O | -2.38 | 2590 nM [falling, partial curve] | 366 nM [falling, full curve, poor fit] |
| CC(C)CC(=O)/C(=C\c1ccc(Cl)cc1Cl)n1cncn1 | -69 | 9200 nM [falling, partial curve] | 18400 nM [falling, partial curve] |
| COCCN(C(=O)Cc1cccs1)c1nnc(-c2ccncc2)s1 | 19.5 | 731 nM [rising, single point] |  |

| Compound | cell number change [%] | AC50 [1] | AC50 [2] |
| --- | --- | --- | --- |
| CC(C)c1ccc(S(=O)(=O)/N=C2/C=CC(=O)c3ccccc32)cc1 | 5.08 | 2060 nM [falling, single point] | 6510 nM [falling, single point] |
| O=C(OCC(=O)N1CCCC1)c1cc(Br)ccc1Cl | 3.94 | 3260 nM [falling, partial curve] |  |
| CCOc1ccccc1C(=O)NCC(=O)OCCOc1cccc(Cl)c1 | 8.42 | 580 nM [falling, single point] |  |
| CCCCN(CCCC)CCNC(=O)c1cn(CC)c2ccc(S(=O)(=O)N(C)C3CCCCC3)cc2c1=O | 8.78 | 11600 nM [falling, single point] |  |
| Cc1sc2nc[nH]c(=O)c2c1-c1ccc(Cl)cc1 | -7.14 | 2060 nM [falling, single point] |  |
| COc1ccc(OCCN2CCN(C(=O)c3ccc(OC)cc3)CC2)cc1 | 8.33 | 580 nM [rising, single point] |  |
| c1ccc2c(c1)CC(CN1CCNCC1)O2 (configuration not stated) | 21.8 | 580 nM [falling, single point] |  |
| O=C(Cn1cc([N+](=O)[O-])cn1)NC1CCCCCC1 | 2.86 | 6510 nM [falling, single point] |  |
| O=C(Nc1sc2c(c1C(=O)NCc1ccco1)CCCC2)c1ccc2c(c1)OCO2 |  | 820 nM [rising, partial curve, poor fit] | 6.51 nM [rising, full curve, poor fit] |
| O=C(NNC(=O)c1cccnc1)NC1CCCCC1 | 39.6 | 29100 nM [rising, single point] | 8200 nM [rising, partial curve, poor fit] |
| Cc1ccc(N2C(=O)CC(Sc3cccs3)C2=O)cc1 (configuration not stated) | -6.74 | 6510 nM [falling, single point] |  |
| COc1ccc(OC)c(S(=O)(=O)N2CCC(C(=O)NCCc3ccc(OC)c(OC)c3)CC2)c1 | 85.8 | 23100 nM [rising, single point] | 18400 nM [rising, single point] |
| CC(C)COc1ccc(C(=O)Nc2ccc(N3CCOCC3)cc2N2CCOCC2)cc1 | -51.5 | 10000 nM [falling, partial curve] | 5010 nM [falling, partial curve] |
| Cc1nnc2ccc(-c3ccc(NC(=O)c4ccc(Cl)nc4)cc3)nn12 | -9.34 | 51.7 nM [falling, full curve, poor fit] |  |
| CCOC(=O)c1c(CN2CCN(Cc3ccccc3)CC2)n(C)c2cc(Br)c(OC)cc12 | 90.6 |  | 517 nM [rising, full curve, poor fit] |
| O=C(CSc1ncnc2nc[nH]c12)NCCc1ccccc1 | -22.5 | 651 nM [falling, full curve, poor fit] |  |
| C=C(C)Cn1c(=O)c2c(nc3n2CCN3c2cccc(Cl)c2C)n(C)c1=O | -28.5 |  |  |
| CCOC(=O)N1CCN(C(=O)c2ccc(NS(=O)(=O)c3ccc(C)cc3)cc2)CC1 |  | 103 nM [falling, full curve, poor fit] |  |
| Cc1ccc(Cn2nnnc2CN2CCC(NC(=O)C(C)(C)C)CC2)cc1 | -46.7 | 20600 nM [falling, single point] | 29100 nM [falling, single point] |

| Compound | cell number change [%] | AC50 [1] | AC50 [2] |
| --- | --- | --- | --- |
| CCN(Cc1ccncc1)C(=O)c1cc(COc2ccc(F)cc2Cl)on1 | 10.8 |  |  |
| CCn1c(=O)c2sccc2n(CC(=O)NC2CCCC2)c1=O | 2.08 | 580 nM [falling, partial curve, poor fit] |  |
| CC(C)CN(C(=O)CN1C(=O)C2CCCCC2C1=O)c1c(N)n(Cc2ccccc2)c(=O)[nH]c1=O (configuration not stated) | -3.76 | 1640 nM [falling, partial curve] |  |
| NS(=O)(=O)c1ccc(CCNC(=O)COC(=O)/C=C/c2ccccc2Cl)cc1 | -15.7 | 29.1 nM [falling, full curve, poor fit] |  |
| CC(OC(=O)C1COc2ccccc2O1)C(=O)N(C)c1ccccc1 (configuration not stated) | -10.3 | 291 nM [falling, full curve, poor fit] |  |
| Cc1cccc(C)c1NC(=O)c1cn(-c2ccccc2)nc1-c1ccccc1 | 19.6 | 2060 nM [rising, full curve] | 411 nM [rising, full curve, poor fit] |
| Cc1cc(C(=O)OCC(=O)NC2CC2)c2ccccc2n1 | -14.2 | 731 nM [falling, full curve] |  |
| CCn1ccnc1C(O)c1ccc(N(C)C)cc1 (configuration not stated) | 6.9 | 6510 nM [falling, single point] |  |
| CCCCn1cnc2c(cnn2-c2ccc(F)cc2)c1=O | -30.7 |  | 32600 nM [falling, single point] |
| COc1cc2c(cc1OC)C(C)N(C(=O)C1=NN(c3cccc(C)c3)C(=O)CC1)CC2 (configuration not stated) | 13.8 | 206 nM [rising, full curve] |  |
| COCCNC(=O)Cn1c(=O)n(CCCCCC(=O)NCc2ccc3c(c2)OCO3)c(=O)c2sccc21 | 38 | 6510 nM [rising, full curve] | 3260 nM [rising, full curve, poor fit] |
| C=C1CC2C3CC[C@@]4(OCOC45COCO5)[C@@]3(C)C(O)CC2[C@@]2(C)CCC(=O)C=C12 (some centres not stated) | -3.6 | 16400 nM [falling, partial curve] |  |
| CN(c1ccc(C(=O)N2CCOCC2)cc1)S(=O)(=O)c1ccc(Cl)cc1 | 4.8 | 326 nM [rising, partial curve, poor fit] |  |
| COC(=O)c1cc2ccsc2n1CC(=O)Nc1cc(C)cc(C)c1 | 144 |  | 20600 nM [rising, single point] |
| CC(=O)Nc1ccc(S(=O)(=O)NCCc2csc(-c3cccnc3)n2)cc1 | 0.289 | 82 nM [rising, full curve, poor fit] |  |
| COc1cccc(CSc2nc3cc4c(cc3cc2C)OCCO4)c1 | 1.67 | 18400 nM [rising, single point] |  |
| CCN(C(=O)CSc1nc(C2CC2)n(-c2ccccc2)n1)C1CCS(=O)(=O)C1 (configuration not stated) | 33 |  | 6510 nM [rising, full curve, poor fit] |
| CCOC(=O)c1c(N)c(C#N)nn1-c1ccccc1C(=O)OC |  | 1300 nM [rising, partial curve] | 1160 nM [rising, partial curve] |
| Cc1cccc(N2C(=O)C3CCC(c4ccccc4)CC3C2=O)c1 (configuration not stated) | 16.1 | 11600 nM [rising, partial curve, poor fit] |  |

Three compounds already listed, sorted by heavy-atom count, smallest number first:

| Compound | cell number change [%] | AC50 [1] | AC50 [2] |
| --- | --- | --- | --- |
| COC(=O)c1cc2ccsc2n1CC(=O)Nc1cc(C)cc(C)c1 | 144 |  | 20600 nM [rising, single point] |
| CCN(C(=O)CSc1nc(C2CC2)n(-c2ccccc2)n1)C1CCS(=O)(=O)C1 (configuration not stated) | 33 |  | 6510 nM [rising, full curve, poor fit] |
| COCCNC(=O)Cn1c(=O)n(CCCCCC(=O)NCc2ccc3c(c2)OCO3)c(=O)c2sccc21 | 38 | 6510 nM [rising, full curve] | 3260 nM [rising, full curve, poor fit] |

From PubChem BioAssay AID2685 (National Center for Advancing Translational Sciences (NCATS), 2010)
